The other results are listed elsewhere or left out. The data scatter; read single values as rough.
Tests used:
[1] = compound: ClCC(=O)N[C@@H]1CCCc2ccccc12; assay: log2 mean competition ratio of IA-DTB cysteine labelling (DMSO/compound) (log2 ratio); higher = stronger cysteine engagement by compound; settings: treatment time: 4 h, cell line lysate: HEK293T
Procedure: (§1)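 IA-DTB competitive cysteine chemoproteomics in HEK293T RIPA lysate. Lysates were treated with compound 29 or 30 at 50 or 200 µM for 4 h, then IA-DTB (500 µM, 1 h), trypsin-digested, NeutrAvidin-enriched and analysed by diaPASEF. Competition ratio = intensity DMSO / intensity compound (n=4 treated, n=64 DMSO); binding: mean log2 CR ≥ 1 and p ≤ 0.05 plus QC filters. Target is the cysteine site.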

Protein sequences, listed by entry. Tags and fused reporters are not part of them. Lines headed by an entry give the natural chain unless they say otherwise; changes in a name come on top. Residues count along the entry.
UniProt Q13535: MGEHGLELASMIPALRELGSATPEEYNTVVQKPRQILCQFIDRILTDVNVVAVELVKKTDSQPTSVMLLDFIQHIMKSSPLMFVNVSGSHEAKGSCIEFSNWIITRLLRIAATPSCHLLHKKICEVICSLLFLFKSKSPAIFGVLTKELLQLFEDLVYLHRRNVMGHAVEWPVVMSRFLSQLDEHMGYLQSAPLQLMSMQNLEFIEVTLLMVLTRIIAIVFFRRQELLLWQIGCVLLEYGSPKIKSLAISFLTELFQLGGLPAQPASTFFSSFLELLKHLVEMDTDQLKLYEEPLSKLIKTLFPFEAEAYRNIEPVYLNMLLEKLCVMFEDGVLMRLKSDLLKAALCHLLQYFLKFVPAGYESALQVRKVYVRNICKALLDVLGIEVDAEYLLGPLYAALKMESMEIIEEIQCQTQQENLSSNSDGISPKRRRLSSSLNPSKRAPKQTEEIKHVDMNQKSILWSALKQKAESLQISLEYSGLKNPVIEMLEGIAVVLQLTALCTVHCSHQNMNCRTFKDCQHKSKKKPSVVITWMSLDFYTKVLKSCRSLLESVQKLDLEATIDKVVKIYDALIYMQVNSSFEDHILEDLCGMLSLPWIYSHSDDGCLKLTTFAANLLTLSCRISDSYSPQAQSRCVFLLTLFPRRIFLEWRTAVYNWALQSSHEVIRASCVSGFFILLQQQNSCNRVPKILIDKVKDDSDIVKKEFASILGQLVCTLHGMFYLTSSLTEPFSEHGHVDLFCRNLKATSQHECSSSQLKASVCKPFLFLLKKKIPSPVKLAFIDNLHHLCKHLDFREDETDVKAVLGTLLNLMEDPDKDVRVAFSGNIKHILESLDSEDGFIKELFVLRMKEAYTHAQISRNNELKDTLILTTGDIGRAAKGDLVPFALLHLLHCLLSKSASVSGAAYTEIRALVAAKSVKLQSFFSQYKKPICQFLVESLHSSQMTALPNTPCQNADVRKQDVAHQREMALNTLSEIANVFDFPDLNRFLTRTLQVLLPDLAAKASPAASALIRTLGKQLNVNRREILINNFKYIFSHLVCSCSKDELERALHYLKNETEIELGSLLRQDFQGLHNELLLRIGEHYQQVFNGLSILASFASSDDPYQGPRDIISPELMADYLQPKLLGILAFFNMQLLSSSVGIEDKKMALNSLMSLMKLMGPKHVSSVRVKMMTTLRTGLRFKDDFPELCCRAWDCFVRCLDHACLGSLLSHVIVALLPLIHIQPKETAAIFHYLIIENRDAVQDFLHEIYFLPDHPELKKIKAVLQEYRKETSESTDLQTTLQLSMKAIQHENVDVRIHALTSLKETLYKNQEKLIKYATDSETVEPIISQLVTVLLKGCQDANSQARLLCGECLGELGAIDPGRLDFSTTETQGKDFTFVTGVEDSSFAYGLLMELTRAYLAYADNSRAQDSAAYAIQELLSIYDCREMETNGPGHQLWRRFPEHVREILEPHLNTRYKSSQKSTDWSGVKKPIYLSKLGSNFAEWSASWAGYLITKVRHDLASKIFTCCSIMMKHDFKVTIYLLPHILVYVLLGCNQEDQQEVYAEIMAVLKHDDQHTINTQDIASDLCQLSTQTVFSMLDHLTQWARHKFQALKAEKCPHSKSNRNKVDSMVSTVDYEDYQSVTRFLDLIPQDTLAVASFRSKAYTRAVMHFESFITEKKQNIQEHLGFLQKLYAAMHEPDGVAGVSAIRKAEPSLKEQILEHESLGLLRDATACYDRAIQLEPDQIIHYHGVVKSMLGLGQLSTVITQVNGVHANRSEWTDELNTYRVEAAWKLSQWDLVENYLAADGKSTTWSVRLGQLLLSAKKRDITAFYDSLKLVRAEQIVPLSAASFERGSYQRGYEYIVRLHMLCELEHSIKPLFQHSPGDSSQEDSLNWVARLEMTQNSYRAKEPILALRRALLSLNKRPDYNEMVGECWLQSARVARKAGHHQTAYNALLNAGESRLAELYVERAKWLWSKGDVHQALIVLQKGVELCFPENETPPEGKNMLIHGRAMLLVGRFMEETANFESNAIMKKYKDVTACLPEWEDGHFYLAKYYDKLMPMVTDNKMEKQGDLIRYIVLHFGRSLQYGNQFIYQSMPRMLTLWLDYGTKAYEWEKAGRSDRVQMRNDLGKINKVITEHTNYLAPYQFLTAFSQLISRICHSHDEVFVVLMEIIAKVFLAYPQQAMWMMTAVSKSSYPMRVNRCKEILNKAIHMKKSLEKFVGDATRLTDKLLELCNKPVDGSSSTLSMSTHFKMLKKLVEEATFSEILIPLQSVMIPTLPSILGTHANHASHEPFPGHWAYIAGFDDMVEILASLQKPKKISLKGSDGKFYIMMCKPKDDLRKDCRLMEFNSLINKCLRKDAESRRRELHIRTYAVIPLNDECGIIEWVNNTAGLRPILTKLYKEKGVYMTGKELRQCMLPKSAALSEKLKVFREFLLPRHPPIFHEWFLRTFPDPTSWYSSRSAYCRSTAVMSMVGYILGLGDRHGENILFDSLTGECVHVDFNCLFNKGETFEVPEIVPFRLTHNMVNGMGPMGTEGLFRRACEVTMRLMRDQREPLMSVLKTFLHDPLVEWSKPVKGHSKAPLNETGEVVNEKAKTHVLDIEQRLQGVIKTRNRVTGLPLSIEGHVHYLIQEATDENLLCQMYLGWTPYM
UniProt P21283, whole entry, looked up: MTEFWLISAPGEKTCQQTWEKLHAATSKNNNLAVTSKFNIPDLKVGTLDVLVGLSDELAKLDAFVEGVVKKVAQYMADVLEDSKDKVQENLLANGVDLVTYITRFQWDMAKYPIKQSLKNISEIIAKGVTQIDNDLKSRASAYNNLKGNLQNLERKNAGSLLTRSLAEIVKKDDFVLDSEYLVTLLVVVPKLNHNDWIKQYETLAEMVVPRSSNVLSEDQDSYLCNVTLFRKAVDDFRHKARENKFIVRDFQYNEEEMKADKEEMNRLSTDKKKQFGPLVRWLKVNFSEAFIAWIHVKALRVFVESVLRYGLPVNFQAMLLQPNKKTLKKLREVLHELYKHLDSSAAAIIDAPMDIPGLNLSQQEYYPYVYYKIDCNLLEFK
UniProt Q8TBE0: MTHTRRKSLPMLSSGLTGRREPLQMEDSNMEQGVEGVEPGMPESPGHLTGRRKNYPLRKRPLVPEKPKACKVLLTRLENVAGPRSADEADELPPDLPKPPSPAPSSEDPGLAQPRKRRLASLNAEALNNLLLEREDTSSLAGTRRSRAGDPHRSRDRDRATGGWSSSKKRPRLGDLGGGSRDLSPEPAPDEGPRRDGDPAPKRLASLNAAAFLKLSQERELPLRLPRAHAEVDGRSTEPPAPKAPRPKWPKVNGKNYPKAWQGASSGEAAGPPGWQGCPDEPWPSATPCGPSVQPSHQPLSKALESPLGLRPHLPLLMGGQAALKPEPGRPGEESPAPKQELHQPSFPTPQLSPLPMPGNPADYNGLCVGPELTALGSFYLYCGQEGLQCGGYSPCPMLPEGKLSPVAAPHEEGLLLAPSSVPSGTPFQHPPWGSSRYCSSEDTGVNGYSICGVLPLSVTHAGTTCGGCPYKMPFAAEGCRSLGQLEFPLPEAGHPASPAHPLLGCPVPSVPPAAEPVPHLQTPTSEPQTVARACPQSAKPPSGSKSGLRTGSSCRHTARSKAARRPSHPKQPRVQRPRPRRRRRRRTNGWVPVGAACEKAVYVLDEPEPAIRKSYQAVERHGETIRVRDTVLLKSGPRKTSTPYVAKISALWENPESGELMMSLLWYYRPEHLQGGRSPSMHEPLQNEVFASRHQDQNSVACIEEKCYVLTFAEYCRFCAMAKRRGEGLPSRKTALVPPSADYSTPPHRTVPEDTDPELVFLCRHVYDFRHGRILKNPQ
UniProt Q9BXK5, 86-110: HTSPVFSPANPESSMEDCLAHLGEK
UniProt Q9NSY1, 322-349: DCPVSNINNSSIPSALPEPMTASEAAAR
UniProt Q96QE3: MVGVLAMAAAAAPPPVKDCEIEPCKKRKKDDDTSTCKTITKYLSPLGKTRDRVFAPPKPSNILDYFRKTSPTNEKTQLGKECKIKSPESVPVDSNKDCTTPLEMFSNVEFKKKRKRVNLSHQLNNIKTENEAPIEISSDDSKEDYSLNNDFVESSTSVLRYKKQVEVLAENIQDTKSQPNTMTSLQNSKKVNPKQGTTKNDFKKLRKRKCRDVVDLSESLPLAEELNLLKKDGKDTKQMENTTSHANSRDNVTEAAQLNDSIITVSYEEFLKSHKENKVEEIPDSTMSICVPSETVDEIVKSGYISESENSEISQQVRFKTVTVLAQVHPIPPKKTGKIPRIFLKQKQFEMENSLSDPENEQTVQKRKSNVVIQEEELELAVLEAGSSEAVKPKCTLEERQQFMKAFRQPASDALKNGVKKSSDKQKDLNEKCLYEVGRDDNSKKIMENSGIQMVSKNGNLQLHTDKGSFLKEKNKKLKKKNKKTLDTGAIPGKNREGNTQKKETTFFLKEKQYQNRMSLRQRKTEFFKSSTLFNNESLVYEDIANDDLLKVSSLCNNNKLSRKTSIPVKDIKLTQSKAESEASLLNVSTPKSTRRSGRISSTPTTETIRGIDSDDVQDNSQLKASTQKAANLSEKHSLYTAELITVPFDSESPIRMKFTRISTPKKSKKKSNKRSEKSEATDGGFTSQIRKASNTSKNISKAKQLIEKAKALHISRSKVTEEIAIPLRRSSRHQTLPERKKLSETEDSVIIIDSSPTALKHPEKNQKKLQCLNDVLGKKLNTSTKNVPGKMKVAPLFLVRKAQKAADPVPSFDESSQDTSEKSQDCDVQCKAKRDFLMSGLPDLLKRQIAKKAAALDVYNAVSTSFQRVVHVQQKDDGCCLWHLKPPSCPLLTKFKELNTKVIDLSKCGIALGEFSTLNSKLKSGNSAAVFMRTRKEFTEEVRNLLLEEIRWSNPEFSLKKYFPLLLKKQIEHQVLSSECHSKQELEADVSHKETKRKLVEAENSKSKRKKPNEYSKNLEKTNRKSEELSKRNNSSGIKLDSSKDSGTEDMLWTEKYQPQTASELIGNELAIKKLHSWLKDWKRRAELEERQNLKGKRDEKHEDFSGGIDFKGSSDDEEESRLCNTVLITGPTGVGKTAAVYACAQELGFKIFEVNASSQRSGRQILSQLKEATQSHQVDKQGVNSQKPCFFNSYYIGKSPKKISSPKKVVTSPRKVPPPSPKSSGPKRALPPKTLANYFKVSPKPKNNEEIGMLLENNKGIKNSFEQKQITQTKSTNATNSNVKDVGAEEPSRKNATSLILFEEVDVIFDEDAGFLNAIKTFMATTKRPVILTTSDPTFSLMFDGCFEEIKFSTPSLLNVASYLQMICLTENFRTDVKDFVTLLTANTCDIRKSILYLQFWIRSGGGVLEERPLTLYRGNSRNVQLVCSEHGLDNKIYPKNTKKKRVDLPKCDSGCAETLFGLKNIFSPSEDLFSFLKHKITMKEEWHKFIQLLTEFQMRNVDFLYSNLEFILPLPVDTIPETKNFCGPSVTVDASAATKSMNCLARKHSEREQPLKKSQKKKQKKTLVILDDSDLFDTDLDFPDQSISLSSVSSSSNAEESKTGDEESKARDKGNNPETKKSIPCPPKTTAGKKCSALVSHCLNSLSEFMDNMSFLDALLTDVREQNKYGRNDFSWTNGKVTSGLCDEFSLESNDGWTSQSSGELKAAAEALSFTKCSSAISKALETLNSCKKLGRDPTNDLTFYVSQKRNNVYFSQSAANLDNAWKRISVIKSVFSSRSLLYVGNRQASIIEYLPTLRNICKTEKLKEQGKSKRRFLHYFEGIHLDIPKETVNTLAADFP
UniProt O75815: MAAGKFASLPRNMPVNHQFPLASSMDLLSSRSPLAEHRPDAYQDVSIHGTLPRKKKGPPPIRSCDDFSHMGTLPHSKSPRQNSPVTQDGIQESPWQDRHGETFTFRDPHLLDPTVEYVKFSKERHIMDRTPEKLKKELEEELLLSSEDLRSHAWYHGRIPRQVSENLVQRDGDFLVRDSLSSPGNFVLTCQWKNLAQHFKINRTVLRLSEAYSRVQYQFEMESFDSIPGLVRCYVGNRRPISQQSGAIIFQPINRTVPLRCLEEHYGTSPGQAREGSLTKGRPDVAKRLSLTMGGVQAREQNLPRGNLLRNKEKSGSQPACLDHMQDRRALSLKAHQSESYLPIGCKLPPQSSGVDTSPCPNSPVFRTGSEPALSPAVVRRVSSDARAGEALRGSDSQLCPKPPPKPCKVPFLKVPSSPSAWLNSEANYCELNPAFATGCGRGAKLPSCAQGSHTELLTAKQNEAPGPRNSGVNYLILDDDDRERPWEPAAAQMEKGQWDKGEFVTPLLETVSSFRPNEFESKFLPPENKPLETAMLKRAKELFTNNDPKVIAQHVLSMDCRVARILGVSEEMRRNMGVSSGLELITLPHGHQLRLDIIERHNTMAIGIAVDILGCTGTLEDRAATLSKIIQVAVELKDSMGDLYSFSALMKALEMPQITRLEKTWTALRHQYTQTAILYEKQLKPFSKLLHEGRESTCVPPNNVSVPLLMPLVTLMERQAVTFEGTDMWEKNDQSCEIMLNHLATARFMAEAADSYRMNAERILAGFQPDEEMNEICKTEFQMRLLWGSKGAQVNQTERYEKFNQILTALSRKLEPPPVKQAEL

[2] = compound: ClCC(=O)N[C@H]1CCCc2ccccc12; assay: as above; settings: treatment time: 4 h, cell line lysate: HEK293T
Procedure: as §1

Row | Target | log2 mean competition ratio ([1]; 50 µM) | log2 mean competition ratio ([1]; 200 µM) | log2 mean competition ratio ([2]; 50 µM) | log2 mean competition ratio ([2]; 200 µM)
1 | ATR C1198 (UniProt Q13535) | 0.379 | 0.0692 | 0.241 | 0.0677
2 | ATP6V1C1 C15 (UniProt P21283) | 0.331 | -0.0307 | 0.941 | 0.286
3 | BAHD1 C703 (UniProt Q8TBE0) | -0.455 | -0.419 | -0.849 | 0.202
4 | BCL2L13 C103 (UniProt Q9BXK5) | -0.118 | 0.208 | -0.192 | -0.21
5 | BMP2K C323 (UniProt Q9NSY1) | 0.392 | -0.301 | 0.255 | -0.335
6 | ATAD5 C1430 (UniProt Q96QE3) | -0.157 | 0.215 | -0.322 | 0.0119
7 | BCAR3 C261 (UniProt O75815) | 0.248 | 0.171 | -0.0227 | 0.116

— the supplement of paper PMC11732987, “Enantioselective OTUD7B fragment discovery through chemoproteomics screening and high-throughput optimisation” (Communications Chemistry, 2025)
